No constants are given. Whether binding was seen depends on the method and setting. Some results given as binding are weak or reduced against the parent protein; the word gives no strength. Tags and fused reporters may be left off the sequences shown.
Key:
[1] = biological target: full length human CD154 on stably transfected mouse fibroblasts (human) (UniProt P29965); experiment: flow cytometry on mouse fibroblasts expressing human CD154, 1-50 ug/ml, detected with PE anti-CD40 EA-5
[2] = biological target: full length human CD154 on stably transfected mouse fibroblasts (human) (UniProt P29965); experiment: flow cytometry on mouse fibroblasts expressing human CD154 (FIG. 17A)

Chains of the proteins cited; added tags and fusions are not shown.
UniProt P29965: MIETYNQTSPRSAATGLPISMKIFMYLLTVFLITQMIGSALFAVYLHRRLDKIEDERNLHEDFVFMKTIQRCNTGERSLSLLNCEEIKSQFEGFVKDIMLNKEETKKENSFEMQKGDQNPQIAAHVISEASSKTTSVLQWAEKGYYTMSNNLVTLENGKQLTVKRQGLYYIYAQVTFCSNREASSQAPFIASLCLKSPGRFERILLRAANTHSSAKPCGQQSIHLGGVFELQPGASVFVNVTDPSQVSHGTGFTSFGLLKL

binding [1]: binds | binding [2]: binds
B1: Skipping 6-sCD40-Fc (Fc fusion, not shown: a dimerising Fc or GST)
chain: EPPTACREKQYLINSQCCSLCQPGQKLVSDCTEFTETECLPCGESEFLDTWNRETHCHQHKYCDPNLGLRVQQKGTSETDTICTCEEGWHCTSEACESCVLHRSCSPGFGVKQIATGVSDTICEPCPVGFFSNVSSAFEKCHPWTRSPGSAESPGGDPHHLRDPVCHPLGAGLYQKGGQEANQ

From patent US20060287229A1, “Novel CD40 variants” (priority 2004, published 2006)
